Test results from the supplement of paper PMC10849652.
The other results are listed elsewhere or left out.

Protein sequences, listed by entry. Tags and fused reporters are not part of them. Lines headed by an entry give the natural chain unless they say otherwise; changes in a name come on top.
UniProt Q13107: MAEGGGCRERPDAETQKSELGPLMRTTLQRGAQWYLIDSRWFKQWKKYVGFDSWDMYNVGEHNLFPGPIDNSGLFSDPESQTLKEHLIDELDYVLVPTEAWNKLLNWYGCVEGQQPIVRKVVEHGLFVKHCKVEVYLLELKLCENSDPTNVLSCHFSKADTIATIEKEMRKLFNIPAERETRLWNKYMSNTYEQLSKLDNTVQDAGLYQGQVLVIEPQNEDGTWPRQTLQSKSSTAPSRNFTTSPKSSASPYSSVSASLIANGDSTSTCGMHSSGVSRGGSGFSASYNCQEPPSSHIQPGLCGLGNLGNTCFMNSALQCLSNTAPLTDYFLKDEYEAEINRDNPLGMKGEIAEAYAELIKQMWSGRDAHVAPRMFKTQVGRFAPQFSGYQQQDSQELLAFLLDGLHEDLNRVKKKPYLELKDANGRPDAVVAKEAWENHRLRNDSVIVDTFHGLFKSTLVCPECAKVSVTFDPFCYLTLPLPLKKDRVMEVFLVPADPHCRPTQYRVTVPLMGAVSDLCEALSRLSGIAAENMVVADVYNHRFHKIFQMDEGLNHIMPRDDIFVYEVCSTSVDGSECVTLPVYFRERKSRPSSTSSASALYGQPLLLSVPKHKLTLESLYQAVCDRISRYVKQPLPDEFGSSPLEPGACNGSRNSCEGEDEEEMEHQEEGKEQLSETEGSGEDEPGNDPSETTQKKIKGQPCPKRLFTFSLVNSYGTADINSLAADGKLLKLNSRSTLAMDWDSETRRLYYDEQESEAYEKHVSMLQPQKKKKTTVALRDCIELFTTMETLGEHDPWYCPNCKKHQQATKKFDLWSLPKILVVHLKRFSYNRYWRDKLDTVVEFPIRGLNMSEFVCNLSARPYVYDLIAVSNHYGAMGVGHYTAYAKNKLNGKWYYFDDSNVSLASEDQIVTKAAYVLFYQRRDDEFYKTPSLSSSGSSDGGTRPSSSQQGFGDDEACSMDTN
UniProt Q9Y4E8: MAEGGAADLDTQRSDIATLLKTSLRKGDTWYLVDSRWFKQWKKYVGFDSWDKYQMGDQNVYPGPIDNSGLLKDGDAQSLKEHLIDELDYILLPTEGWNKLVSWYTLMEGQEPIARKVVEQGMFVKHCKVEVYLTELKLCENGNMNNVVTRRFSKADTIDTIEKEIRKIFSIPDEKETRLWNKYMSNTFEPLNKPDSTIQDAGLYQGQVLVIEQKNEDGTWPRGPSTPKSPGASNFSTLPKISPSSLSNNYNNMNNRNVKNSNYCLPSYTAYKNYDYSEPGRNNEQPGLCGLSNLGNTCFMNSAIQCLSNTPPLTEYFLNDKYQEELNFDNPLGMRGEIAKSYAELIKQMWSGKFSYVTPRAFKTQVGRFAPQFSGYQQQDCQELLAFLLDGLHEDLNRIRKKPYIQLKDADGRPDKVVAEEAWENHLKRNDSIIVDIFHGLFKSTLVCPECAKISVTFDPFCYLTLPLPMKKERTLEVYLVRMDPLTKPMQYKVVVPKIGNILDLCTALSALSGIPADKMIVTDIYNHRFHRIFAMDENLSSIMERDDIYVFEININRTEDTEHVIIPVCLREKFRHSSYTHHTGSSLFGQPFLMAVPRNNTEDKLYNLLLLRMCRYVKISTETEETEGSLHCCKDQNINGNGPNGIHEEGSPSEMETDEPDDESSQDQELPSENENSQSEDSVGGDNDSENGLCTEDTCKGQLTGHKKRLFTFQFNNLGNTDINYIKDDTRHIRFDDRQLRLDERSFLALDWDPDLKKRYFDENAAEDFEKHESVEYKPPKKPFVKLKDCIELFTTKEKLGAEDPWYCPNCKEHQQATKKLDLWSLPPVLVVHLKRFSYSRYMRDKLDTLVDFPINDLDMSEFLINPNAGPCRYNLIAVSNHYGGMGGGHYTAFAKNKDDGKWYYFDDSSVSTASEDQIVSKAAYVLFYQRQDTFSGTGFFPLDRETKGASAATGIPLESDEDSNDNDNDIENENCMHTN
UniProt P06132: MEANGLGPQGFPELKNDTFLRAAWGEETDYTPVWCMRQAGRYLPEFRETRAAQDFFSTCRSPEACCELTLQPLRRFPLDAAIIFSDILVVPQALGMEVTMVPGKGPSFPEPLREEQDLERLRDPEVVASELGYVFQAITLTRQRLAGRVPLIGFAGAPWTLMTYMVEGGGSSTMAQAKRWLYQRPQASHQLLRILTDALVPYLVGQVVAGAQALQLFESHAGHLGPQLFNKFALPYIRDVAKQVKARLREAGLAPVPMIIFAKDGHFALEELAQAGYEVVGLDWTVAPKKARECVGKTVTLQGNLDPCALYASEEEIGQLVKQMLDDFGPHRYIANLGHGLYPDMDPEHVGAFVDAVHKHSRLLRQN
UniProt Q8TED0: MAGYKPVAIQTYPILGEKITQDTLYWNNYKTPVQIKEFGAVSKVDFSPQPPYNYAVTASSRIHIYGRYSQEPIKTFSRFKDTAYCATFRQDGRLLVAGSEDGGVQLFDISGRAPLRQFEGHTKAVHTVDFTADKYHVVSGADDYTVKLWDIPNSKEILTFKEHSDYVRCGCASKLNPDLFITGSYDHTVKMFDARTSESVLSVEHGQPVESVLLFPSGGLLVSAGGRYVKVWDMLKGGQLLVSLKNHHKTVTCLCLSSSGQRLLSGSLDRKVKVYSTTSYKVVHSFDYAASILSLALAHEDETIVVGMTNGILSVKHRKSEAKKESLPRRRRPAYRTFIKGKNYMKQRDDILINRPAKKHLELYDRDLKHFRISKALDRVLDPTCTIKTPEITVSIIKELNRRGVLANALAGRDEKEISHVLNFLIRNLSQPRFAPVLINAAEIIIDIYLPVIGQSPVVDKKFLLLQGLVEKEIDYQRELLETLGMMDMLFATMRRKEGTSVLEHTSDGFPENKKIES
UniProt Q9BZI7: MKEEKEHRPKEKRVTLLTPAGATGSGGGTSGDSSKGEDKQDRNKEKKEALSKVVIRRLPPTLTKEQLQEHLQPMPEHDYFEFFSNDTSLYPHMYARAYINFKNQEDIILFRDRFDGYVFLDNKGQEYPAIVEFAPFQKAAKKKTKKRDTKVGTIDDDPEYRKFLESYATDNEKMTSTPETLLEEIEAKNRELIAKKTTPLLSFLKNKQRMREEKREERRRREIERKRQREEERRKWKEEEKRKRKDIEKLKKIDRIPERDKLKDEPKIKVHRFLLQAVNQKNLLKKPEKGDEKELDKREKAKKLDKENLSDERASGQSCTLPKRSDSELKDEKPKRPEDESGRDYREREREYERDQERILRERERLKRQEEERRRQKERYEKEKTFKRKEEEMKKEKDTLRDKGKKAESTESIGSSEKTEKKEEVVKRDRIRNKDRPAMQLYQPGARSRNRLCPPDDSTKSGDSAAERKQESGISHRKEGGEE
UniProt P50552: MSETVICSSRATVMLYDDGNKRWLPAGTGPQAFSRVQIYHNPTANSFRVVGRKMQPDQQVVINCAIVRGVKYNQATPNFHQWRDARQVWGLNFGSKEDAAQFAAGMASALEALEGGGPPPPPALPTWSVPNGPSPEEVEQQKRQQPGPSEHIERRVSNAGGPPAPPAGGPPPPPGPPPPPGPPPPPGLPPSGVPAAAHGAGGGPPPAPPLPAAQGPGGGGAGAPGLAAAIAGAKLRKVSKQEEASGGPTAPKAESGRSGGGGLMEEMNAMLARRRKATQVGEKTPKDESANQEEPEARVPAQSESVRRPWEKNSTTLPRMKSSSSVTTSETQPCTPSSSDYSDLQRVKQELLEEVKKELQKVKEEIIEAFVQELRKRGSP
UniProt P61758, whole entry, looked up: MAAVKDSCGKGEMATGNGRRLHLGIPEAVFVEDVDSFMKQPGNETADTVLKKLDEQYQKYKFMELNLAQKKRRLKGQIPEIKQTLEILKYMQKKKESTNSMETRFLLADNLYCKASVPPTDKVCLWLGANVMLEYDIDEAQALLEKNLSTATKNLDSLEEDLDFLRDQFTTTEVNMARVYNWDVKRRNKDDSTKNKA
UniProt Q8IX04: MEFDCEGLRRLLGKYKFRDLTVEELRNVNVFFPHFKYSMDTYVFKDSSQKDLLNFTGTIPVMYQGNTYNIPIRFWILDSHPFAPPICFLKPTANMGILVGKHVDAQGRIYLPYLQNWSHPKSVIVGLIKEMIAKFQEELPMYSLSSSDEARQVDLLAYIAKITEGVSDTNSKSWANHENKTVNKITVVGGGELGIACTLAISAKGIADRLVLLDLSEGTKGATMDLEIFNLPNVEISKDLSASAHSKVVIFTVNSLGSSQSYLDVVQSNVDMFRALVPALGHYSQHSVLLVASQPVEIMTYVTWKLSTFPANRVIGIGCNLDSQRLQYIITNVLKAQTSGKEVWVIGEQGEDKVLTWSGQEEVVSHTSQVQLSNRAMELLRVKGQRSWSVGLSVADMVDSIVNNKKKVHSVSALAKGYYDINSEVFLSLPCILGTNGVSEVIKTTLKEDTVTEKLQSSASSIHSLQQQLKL
UniProt Q6UW78: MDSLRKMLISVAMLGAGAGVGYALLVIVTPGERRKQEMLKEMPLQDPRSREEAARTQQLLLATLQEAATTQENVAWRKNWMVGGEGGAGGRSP
UniProt Q8TAA9: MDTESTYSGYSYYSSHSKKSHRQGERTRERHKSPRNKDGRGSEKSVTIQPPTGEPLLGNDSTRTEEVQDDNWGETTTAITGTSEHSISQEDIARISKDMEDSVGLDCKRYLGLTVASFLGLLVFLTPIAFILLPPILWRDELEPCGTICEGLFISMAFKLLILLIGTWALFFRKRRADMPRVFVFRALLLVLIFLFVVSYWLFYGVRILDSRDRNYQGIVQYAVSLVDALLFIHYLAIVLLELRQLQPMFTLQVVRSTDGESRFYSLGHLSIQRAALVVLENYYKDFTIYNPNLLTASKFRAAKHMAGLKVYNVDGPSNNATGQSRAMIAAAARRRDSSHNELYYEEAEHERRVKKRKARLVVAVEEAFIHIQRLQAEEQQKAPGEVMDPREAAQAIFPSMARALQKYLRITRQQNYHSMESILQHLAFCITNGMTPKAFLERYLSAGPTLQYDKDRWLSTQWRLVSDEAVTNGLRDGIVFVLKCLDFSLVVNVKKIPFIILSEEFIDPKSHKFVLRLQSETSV
UniProt Q15853: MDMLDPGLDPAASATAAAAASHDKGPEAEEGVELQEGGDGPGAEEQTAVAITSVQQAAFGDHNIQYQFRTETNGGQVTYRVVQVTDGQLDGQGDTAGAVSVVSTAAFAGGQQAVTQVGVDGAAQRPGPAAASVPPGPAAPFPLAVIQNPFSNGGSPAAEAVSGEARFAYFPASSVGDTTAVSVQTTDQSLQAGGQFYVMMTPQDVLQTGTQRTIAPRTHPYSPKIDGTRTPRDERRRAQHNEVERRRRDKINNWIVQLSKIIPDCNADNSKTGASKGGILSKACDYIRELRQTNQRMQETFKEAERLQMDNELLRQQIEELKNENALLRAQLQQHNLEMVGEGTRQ
UniProt Q9NUQ7: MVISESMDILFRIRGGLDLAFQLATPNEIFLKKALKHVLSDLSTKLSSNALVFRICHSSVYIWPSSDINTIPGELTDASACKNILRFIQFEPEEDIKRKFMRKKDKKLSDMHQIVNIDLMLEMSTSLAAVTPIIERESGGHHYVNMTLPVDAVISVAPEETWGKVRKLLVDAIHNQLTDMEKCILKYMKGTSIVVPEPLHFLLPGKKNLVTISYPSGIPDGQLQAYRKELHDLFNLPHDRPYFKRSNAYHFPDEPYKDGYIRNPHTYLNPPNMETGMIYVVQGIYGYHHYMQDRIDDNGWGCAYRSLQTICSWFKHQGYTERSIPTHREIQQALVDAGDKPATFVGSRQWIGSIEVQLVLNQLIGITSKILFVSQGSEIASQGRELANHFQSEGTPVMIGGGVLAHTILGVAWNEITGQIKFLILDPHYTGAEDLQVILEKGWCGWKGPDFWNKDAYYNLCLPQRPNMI
UniProt A6NIH7: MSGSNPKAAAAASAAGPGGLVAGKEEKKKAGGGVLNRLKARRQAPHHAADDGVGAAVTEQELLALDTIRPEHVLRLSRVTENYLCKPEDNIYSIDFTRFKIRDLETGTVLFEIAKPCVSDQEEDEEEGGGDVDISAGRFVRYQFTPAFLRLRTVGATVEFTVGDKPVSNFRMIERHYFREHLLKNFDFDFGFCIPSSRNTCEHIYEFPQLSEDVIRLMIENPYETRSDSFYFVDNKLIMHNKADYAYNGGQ
UniProt Q9NWZ5: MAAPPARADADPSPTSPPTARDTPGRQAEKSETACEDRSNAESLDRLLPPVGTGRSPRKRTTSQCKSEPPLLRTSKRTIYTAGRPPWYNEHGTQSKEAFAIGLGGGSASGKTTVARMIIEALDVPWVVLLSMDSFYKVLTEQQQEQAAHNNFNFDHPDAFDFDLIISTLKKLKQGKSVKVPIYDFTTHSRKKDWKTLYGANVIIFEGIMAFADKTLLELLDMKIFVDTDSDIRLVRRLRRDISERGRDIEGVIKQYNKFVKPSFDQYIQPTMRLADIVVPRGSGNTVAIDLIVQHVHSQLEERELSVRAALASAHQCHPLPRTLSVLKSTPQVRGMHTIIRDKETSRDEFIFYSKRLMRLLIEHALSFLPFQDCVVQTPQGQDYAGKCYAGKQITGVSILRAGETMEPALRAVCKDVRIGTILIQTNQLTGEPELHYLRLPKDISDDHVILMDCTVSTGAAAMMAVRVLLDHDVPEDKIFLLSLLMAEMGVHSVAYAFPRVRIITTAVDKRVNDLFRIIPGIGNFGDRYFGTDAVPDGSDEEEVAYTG

Key:
Assay in all cases: log2 fold change, soluble protein after heating vs DMSO (PISA); higher = thermal stabilisation; K562 lysate, 10 uM; active = over 0.2 and 3.5 SD of the protein, either way, in both replicates (recomputed)
erlotinib = compound: C#Cc1cccc(Nc2ncnc3cc(OCCOC)c(OCCOC)cc23)c1 [erlotinib]
How it was run: (§1)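 Pellets of K562 cells were dounce-homogenised in PBS pH 7.4 with 1 mM MgCl2, and the crude extract was held at 1 mg/mL protein for a 30 min treatment with 10 μM compound. Aliquots were heated for 3 min over 48°C-58°C and pooled before NP-40 was added to 0.5% at 4°C. The supernatant from 21,000xg for 90 min was quantified by TMTpro 16plex LC-MS/MS with channel sums equalised. Values are reported from duplicates as log-two fold change in thermal stability relative to solvent controls.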

[1] = compound: C/C(=N\NC(=O)C1=CC(=CC=C1)S(=O)(=O)N2CCOCC2)/C3=C(C=CC(=C3)Cl)O
How it was run: as §1

[2] = compound: C1=CC(=CC=C1C2=NC3=C(N2)C=C(C=C3)C(=O)N)OC4=CC=C(C=C4)Cl
How it was run: as §1

[3] = compound: C1=CC2=C(C=CC(=C2)/C=C\3/C(=O)NC(=NCC4=CC=CS4)S3)N=C1
How it was run: as §1

[4] = compound: C1=CC2=NC=CN=C2C=C1/C=C/3\C(=O)NC(=O)S3
How it was run: as §1

[5] = compound: C1=CC=C(C=C1)C2=NC(=C(N2)C3=CC=NC=C3)C4=CC(=C(C=C4)Cl)O
How it was run: as §1

[6] = compound: C1=CC=C2C(=C1)C3=NNC4=CC=CC(=C43)C2=O
How it was run: as §1

[7] = compound: C1CCN(C1)C(=O)NC2=CC=CC(=C2)NC3=NC=C(C(=N3)NCCC4=CN=CN4)Br
How it was run: as §1

[8] = compound: C1CN(CCC1(CC2=CC=C(C=C2)Cl)N)C3=NC=NC4=C3C=CN4
How it was run: as §1

IRAK-1-4 Inhibitor I = compound: C1COCCN1CCN2C3=CC=CC=C3N=C2NC(=O)C4=CC(=CC=C4)[N+](=O)[O-] [IRAK-1-4 Inhibitor I]
How it was run: as §1

Measured: log2 fold change

USP4 (UniProt Q13107)
inactive: erlotinib 0.057 | [1] -0.079 | [2] -0.002 | [3] -0.006 | [4] -0.055 | [5] -0.022 | [6] -0.093 | [7] -0.067 | [8] -0.019 | IRAK-1-4 Inhibitor I 0.001

VAMP8 (UniProt Q9BV40)
inactive: erlotinib -0.008 | [1] 0.023 | [2] 0.025 | [3] 0.02 | [4] -0.037 | [5] 0.013 | [6] -0.017 | [7] -0.02 | [8] 0.038 | IRAK-1-4 Inhibitor I -0.006

UNC45A (UniProt Q9H3U1)
inactive: erlotinib 0.016 | [1] 0.014 | [2] -0.039 | [3] -0.006 | [4] 0.001 | [5] -0.024 | [6] -0.037 | [7] -0.015 | [8] -0.002 | IRAK-1-4 Inhibitor I -0.001

USP15 (UniProt Q9Y4E8)
inactive: erlotinib 0.009 | [1] -0.011 | [2] -0.009 | [3] -0.001 | [4] -0.02 | [5] 0.001 | [6] -0.011 | [7] -0.004 | [8] -0.012 | IRAK-1-4 Inhibitor I -0.016

USP1 (UniProt O94782)
inactive: erlotinib 0.013 | [1] 0.017 | [2] 0.027 | [3] 0.007 | [4] -0.012 | [5] -0.013 | [6] 0.018 | [7] 0.002 | [8] 0.01 | IRAK-1-4 Inhibitor I 0.013

UROD (UniProt P06132)
inactive: erlotinib -0.021 | [1] -0.094 | [2] -0.019 | [3] -0.013 | [4] 0.009 | [5] -0.01 | [6] 0.008 | [7] 0.017 | [8] 0.02 | IRAK-1-4 Inhibitor I -0.008

UFD1 isoform 1 (UniProt Q92890)
inactive: erlotinib -0.027 | [1] 0.052 | [2] 0.025 | [3] -0.023 | [4] 0.005 | [5] 0.018 | [6] 0.042 | [7] 0.013 | [8] 0.009 | IRAK-1-4 Inhibitor I 0.025

VCPIP1 (UniProt Q96JH7)
inactive: erlotinib -0.054 | [1] -0.04 | [2] -0.002 | [3] 0.053 | [4] -0.037 | [5] 0.041 | [6] 0.006 | [7] 0 | [8] 0.038 | IRAK-1-4 Inhibitor I -0.035

UTP15 (UniProt Q8TED0)
inactive: erlotinib -0.012 | [1] -0.001 | [2] -0.042 | [3] 0.018 | [4] 0 | [5] -0.036 | [6] -0.052 | [7] -0.006 | [8] 0.035 | IRAK-1-4 Inhibitor I 0.04

VEZT (UniProt F8W8C2)
inactive: erlotinib 0.018 | [1] 0.03 | [2] -0.069 | [3] -0.139 | [4] 0.038 | [5] 0.046 | [6] -0.136 | [7] -0.087 | [8] 0.076 | IRAK-1-4 Inhibitor I -0.001

UFL1 (UniProt O94874)
inactive: erlotinib -0.003 | [1] -0.009 | [2] 0.029 | [3] 0.033 | [4] 0.021 | [5] -0.018 | [6] 0.005 | [7] -0.016 | [8] 0.032 | IRAK-1-4 Inhibitor I -0.007

UPF3B (UniProt Q9BZI7)
inactive: erlotinib -0.026 | [1] -0.109 | [2] 0.042 | [3] 0.02 | [4] -0.005 | [5] 0.017 | [6] -0.014 | [7] -0.018 | [8] -0.008 | IRAK-1-4 Inhibitor I 0.008

VASP (UniProt P50552)
inactive: erlotinib 0.001 | [1] -0.028 | [2] 0.017 | [3] -0.006 | [4] -0.035 | [5] -0.003 | [6] -0.02 | [7] -0.006 | [8] 0.035 | IRAK-1-4 Inhibitor I 0.014

UIMC1 (UniProt Q96RL1)
inactive: erlotinib -0.013 | [1] 0 | [2] 0.024 | [3] -0.066 | [4] -0.084 | [5] 0.038 | [6] -0.053 | [7] -0.011 | [8] 0.019 | IRAK-1-4 Inhibitor I 0.046

UQCRC2 (UniProt P22695)
inactive: erlotinib 0 | [1] -0.029 | [2] 0.006 | [3] -0.005 | [4] -0.019 | [5] 0.01 | [6] 0.013 | [7] -0.001 | [8] 0.019 | IRAK-1-4 Inhibitor I 0.014

VBP1 (UniProt P61758)
inactive: erlotinib 0.01 | [1] 0.003 | [2] -0.009 | [3] -0.023 | [4] -0.018 | [5] 0 | [6] -0.002 | [7] 0.004 | [8] -0.011 | IRAK-1-4 Inhibitor I -0.009

UEVLD (UniProt Q8IX04)
inactive: erlotinib -0.032 | [1] 0.06 | [2] 0.022 | [3] 0.023 | [4] -0.018 | [5] -0.058 | [6] -0.059 | [7] 0.105 | [8] 0.112 | IRAK-1-4 Inhibitor I -0.003

USP34 (UniProt Q70CQ2)
inactive: erlotinib 0.043 | [1] 0.018 | [2] -0.039 | [3] 0.029 | [4] -0.008 | [5] 0.012 | [6] -0.002 | [7] 0.003 | [8] 0.003 | IRAK-1-4 Inhibitor I -0.001

VARS2, A0A0G2JL52
inactive: erlotinib 0.031 | [1] 0.069 | [2] 0.014 | [3] -0.017 | [4] -0.006 | [5] 0.06 | [6] -0.044 | [7] 0.026 | [8] 0.012 | IRAK-1-4 Inhibitor I -0.01

UQCC3 (UniProt Q6UW78)
inactive: erlotinib 0.09 | [1] 0.063 | [2] -0.085 | [3] 0.19 | [4] -0.026 | [5] -0.03 | [6] -0.336 | [7] 0.02 | [8] -0.25 | IRAK-1-4 Inhibitor I -0.192

VCP (UniProt P55072)
inactive: erlotinib -0.009 | [1] -0.002 | [2] 0.027 | [3] -0.009 | [4] -0.011 | [5] -0.002 | [6] 0.012 | [7] 0.011 | [8] -0.012 | IRAK-1-4 Inhibitor I -0.008

USP47 isoform 4 (UniProt Q96K76)
inactive: erlotinib -0.011 | [1] -0.012 | [2] -0.002 | [3] 0.002 | [4] -0.016 | [5] 0.002 | [6] 0.004 | [7] -0.012 | [8] -0.006 | IRAK-1-4 Inhibitor I -0.012

UMPS (UniProt P11172)
inactive: erlotinib -0.005 | [1] -0.008 | [2] 0 | [3] 0.026 | [4] 0.028 | [5] 0.003 | [6] 0.004 | [7] 0.007 | [8] -0.013 | IRAK-1-4 Inhibitor I -0.023

Quoted at random: 2 records from the list.
USP34 (UniProt Q70CQ2)
inactive: erlotinib 0.043 | [1] 0.018 | [2] -0.039 | [3] 0.029 | [4] -0.008 | [5] 0.012 | [6] -0.002 | [7] 0.003 | [8] 0.003 | IRAK-1-4 Inhibitor I -0.001

USP15 (UniProt Q9Y4E8)
inactive: erlotinib 0.009 | [1] -0.011 | [2] -0.009 | [3] -0.001 | [4] -0.02 | [5] 0.001 | [6] -0.011 | [7] -0.004 | [8] -0.012 | IRAK-1-4 Inhibitor I -0.016

The list continues.

VANGL1 (UniProt Q8TAA9)
inactive: erlotinib 0 | [1] -0.043 | [2] -0.088 | [3] 0.022 | [4] -0.149 | [5] -0.377 | [6] -0.01 | [7] -0.072 | [8] 0.004 | IRAK-1-4 Inhibitor I 0.182

USP19 isoform 6 (UniProt O94966)
inactive: erlotinib -0.003 | [1] 0.021 | [2] 0.016 | [3] -0.033 | [4] 0.049 | [5] 0.012 | [6] -0.012 | [7] -0.011 | [8] -0.001 | IRAK-1-4 Inhibitor I 0.029

USF2 (UniProt Q15853)
inactive: erlotinib 0.028 | [1] -0.017 | [2] 0.114 | [3] 0.036 | [4] -0.046 | [5] -0.03 | [6] -0.006 | [7] -0.018 | [8] -0.102 | IRAK-1-4 Inhibitor I -0.003

UFSP2 (UniProt Q9NUQ7)
inactive: erlotinib -0.04 | [1] -0.034 | [2] 0.028 | [3] 0.098 | [4] -0.015 | [5] -0.042 | [6] -0.055 | [7] -0.026 | [8] -0.037 | IRAK-1-4 Inhibitor I 0.023

VIL1 (UniProt P09327)
inactive: erlotinib -0.048 | [1] -0.017 | [2] -0.042 | [3] 0.013 | [4] 0.124 | [5] -0.026 | [6] -0.04 | [7] -0.222 | [8] 0.003 | IRAK-1-4 Inhibitor I 0.04

UNC119B (UniProt A6NIH7)
inactive: erlotinib -0.068 | [1] 0.278 | [2] 0.029 | [3] -0.041 | [4] 0.007 | [5] 0.264 | [6] -0.061 | [7] 0.026 | [8] -0.044 | IRAK-1-4 Inhibitor I 0.02

UCKL1 (UniProt Q9NWZ5)
inactive: erlotinib 0.044 | [1] -0.027 | [2] -0.012 | [3] 0.025 | [4] -0.004 | [5] 0.04 | [6] -0.039 | [7] -0.014 | [8] 0.007 | IRAK-1-4 Inhibitor I -0.009
